Reference: article PMC4322351
Results are given in words; binding and its absence hold for the method and conditions named. Some results given as binding are weak or reduced against the parent protein; the word gives no strength.

Chains of the proteins cited; added tags and fusions are not shown.
UniProt P07293: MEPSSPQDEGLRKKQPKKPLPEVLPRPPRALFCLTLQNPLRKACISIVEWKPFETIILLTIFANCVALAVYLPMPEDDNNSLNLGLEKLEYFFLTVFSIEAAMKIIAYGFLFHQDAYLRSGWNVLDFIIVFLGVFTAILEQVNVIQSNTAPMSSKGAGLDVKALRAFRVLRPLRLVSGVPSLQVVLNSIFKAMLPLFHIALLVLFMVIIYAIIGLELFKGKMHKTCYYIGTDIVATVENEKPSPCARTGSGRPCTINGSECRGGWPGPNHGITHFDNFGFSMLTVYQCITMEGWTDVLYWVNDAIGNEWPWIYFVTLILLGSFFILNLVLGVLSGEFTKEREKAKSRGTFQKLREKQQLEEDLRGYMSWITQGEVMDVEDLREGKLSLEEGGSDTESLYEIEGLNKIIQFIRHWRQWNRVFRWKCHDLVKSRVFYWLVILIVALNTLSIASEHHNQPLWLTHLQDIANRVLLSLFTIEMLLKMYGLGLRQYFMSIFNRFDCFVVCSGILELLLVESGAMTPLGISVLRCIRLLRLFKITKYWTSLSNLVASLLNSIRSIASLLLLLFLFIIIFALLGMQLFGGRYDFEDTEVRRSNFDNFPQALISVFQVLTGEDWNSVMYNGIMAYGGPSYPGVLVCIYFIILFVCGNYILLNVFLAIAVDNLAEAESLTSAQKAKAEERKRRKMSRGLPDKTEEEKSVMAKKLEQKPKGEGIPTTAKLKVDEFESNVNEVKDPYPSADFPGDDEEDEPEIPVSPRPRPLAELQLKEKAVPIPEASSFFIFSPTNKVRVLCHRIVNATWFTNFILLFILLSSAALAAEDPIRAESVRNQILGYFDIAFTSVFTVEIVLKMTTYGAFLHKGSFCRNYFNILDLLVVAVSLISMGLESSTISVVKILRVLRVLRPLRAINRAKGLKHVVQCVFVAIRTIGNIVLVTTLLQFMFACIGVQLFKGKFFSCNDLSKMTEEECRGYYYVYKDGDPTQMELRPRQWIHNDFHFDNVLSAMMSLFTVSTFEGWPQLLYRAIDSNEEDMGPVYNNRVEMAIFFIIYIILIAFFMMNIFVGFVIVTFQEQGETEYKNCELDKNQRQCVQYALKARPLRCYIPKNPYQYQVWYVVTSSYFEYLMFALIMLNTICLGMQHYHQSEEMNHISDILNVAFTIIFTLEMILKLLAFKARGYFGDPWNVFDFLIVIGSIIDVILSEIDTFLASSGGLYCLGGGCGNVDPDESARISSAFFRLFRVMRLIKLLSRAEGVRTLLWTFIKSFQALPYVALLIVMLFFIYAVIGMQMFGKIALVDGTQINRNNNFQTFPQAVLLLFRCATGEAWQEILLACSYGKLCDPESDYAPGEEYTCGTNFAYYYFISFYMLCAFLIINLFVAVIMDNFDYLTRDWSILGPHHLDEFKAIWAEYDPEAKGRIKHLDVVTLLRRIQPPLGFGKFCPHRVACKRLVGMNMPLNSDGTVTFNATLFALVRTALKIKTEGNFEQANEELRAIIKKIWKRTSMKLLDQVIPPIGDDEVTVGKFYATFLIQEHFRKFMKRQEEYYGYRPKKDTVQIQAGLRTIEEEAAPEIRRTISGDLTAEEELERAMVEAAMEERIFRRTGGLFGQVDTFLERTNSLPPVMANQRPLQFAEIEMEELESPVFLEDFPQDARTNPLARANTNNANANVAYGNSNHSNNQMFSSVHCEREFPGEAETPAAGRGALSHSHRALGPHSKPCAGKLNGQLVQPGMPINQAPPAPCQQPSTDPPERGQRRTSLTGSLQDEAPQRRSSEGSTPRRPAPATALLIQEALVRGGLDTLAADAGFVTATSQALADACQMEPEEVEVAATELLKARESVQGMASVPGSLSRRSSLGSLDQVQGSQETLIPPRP

Molecular target: dihydropyridine receptor (DHPR)/L-type Ca2+ channel α1 subunit (Cav1.1), skeletal muscle (rabbit (endogenous in skeletal muscle)) (UniProt P07293)
Assay: native gel or EMSA; native PAGE (3-15% linear gradient polyacrylamide, without SDS and 2-mercaptoethanol, silver stained) of the DHPR complex purified whole from rabbit skeletal muscle; single band of ~450 kDa; subunits identified by SDS-PAGE and Western blotting; both purified

binding: binds
B1: dihydropyridine receptor (DHPR)/L-type Ca2+ channel γ subunit, skeletal muscle (protein, UniProt P19518 1-222)
chain: MSPTEAPKVRVTLFCILVGIVLAMTAVVSDHWAVLSPHMENHNTTCEAAHFGLWRICTKRIALGEDRSCGPITLPGEKNCSYFRHFNPGESSEIFEFTTQKEYSISAAAISVFSLGFLIMGTICALMAFRKKRDYLLRPASMFYVFAGLCLFVSLEVMRQSVKRMIDSEDTVWIEYYYSWSFACACAAFVLLFLGGISLLLFSLPRMPQNPWESCMDAEPEH
